This is one part of the list.
Experiments:
Test in all cases: log2 fold change, soluble protein after heating vs DMSO (PISA); higher = thermal stabilisation; K562 cells, 10 uM, 30 min; active = over 0.2 and 3.5 SD of the protein, either way, in both replicates (recomputed)
[1] = compound: CS(=O)(=O)c1ccc(-c2cnc(N)c(C(=O)Nc3ccccc3)n2)cc1
Method in brief: (§1)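 Soluble protein was quantified by TMTpro 16plex LC-MS/MS after channel sums were equalised. It was obtained as the supernatant after 21,000xg for 90 min from pooled aliquots of K562 cells (2×10^6 cells/mL, 10 μM compound, 30 min) heated for 3 min across 48°C-58°C and extracted in PBS with 0.5% NP-40 at 4°C. Thermal stability values are relative to control samples and come from duplicates. They are given as log2 fold changes.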

Chains of the proteins cited; added tags and fusions are not shown. Lines headed by an entry give the natural chain unless they say otherwise; changes in a name come on top.
UniProt Q96EK6: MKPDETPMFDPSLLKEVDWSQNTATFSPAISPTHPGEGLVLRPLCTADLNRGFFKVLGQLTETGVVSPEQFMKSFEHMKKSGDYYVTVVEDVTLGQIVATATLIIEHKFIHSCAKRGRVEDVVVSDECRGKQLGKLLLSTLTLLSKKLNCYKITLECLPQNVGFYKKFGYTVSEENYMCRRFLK
UniProt Q9HAV0, whole entry, looked up: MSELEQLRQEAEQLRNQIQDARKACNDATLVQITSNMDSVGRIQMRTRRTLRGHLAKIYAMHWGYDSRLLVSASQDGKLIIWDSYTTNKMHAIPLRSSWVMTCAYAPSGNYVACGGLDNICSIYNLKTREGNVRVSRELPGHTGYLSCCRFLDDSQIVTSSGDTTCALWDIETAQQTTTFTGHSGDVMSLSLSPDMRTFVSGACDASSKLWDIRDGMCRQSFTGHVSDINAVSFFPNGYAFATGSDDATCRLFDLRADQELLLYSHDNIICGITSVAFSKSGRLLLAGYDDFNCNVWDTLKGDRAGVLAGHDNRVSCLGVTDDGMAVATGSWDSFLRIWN
UniProt Q9NWU2, whole entry, looked up: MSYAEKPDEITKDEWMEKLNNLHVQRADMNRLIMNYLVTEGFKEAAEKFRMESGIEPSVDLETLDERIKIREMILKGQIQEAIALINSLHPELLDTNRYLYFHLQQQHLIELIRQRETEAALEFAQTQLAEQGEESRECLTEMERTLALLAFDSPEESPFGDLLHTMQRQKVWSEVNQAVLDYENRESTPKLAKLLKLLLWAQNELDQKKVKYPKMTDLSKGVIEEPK
UniProt P46926: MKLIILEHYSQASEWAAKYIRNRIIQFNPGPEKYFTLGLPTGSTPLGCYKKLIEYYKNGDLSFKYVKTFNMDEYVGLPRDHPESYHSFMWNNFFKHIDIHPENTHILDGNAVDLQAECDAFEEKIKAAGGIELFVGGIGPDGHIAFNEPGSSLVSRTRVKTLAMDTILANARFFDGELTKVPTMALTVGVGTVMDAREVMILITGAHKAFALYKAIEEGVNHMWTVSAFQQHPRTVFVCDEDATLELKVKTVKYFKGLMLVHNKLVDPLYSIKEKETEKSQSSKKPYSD
UniProt P25098: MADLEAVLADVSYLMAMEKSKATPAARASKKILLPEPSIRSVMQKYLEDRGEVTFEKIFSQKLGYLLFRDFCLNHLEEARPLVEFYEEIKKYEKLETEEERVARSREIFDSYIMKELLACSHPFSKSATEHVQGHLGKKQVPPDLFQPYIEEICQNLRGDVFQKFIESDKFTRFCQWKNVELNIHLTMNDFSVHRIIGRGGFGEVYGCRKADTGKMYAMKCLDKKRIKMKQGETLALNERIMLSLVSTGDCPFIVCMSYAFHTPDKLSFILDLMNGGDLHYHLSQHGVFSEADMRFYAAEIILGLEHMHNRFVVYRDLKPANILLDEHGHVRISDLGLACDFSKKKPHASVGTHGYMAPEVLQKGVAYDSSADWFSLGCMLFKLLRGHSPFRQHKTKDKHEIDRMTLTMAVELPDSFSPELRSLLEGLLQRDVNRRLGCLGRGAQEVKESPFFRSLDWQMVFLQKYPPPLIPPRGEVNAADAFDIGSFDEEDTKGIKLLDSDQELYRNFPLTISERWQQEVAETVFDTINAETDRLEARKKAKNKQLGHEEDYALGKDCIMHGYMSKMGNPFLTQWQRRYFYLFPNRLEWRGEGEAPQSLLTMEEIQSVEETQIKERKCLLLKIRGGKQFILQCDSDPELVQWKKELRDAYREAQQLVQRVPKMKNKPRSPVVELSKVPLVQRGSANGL
UniProt Q7Z5G4, whole entry, looked up: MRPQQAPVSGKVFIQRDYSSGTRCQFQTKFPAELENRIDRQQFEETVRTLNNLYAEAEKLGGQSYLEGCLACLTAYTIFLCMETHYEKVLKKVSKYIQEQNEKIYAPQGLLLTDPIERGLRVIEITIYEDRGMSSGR
UniProt P36969, whole entry, looked up: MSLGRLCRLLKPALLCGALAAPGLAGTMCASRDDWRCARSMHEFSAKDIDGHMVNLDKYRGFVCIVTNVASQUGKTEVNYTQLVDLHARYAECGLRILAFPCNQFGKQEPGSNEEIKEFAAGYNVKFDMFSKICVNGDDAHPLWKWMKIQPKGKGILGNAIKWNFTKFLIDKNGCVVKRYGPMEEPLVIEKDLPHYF
UniProt P06280: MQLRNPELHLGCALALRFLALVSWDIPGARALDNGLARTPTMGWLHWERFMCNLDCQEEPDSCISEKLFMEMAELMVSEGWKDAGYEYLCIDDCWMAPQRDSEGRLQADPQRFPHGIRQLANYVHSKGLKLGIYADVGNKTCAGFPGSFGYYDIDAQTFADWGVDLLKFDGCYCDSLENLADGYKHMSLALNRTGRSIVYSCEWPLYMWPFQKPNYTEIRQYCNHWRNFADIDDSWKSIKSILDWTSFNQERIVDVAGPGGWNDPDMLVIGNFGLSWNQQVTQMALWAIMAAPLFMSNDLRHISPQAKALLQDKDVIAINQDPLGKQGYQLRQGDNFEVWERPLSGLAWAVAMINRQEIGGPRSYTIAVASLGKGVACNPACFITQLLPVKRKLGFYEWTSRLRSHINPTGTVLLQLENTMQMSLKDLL
UniProt P49448: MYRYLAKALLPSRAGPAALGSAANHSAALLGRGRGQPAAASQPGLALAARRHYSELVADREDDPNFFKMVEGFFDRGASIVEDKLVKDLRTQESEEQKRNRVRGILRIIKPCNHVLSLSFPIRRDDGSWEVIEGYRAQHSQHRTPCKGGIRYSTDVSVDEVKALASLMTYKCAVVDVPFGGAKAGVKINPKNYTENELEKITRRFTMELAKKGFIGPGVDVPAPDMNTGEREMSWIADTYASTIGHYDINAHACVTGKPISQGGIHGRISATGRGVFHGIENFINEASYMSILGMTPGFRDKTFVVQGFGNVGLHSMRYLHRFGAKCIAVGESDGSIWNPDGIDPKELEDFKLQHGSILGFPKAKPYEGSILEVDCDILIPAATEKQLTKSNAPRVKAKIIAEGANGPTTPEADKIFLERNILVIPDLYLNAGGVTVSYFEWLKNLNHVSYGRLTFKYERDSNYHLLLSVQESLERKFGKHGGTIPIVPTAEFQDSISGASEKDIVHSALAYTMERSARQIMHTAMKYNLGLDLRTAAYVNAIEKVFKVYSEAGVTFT
UniProt P49840: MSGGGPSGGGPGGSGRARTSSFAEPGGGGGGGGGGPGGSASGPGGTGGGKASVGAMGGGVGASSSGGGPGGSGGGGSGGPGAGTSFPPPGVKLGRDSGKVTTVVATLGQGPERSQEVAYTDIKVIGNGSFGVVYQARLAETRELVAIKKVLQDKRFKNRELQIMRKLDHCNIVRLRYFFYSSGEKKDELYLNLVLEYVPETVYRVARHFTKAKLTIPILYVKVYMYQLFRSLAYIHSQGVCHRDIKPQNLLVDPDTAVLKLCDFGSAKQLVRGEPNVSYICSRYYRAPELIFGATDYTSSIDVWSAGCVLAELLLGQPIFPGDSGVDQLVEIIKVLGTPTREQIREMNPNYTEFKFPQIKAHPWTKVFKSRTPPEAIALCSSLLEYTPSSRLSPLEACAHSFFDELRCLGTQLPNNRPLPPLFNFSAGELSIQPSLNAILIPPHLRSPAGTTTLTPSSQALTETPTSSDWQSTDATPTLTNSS
UniProt P15104, whole entry, looked up: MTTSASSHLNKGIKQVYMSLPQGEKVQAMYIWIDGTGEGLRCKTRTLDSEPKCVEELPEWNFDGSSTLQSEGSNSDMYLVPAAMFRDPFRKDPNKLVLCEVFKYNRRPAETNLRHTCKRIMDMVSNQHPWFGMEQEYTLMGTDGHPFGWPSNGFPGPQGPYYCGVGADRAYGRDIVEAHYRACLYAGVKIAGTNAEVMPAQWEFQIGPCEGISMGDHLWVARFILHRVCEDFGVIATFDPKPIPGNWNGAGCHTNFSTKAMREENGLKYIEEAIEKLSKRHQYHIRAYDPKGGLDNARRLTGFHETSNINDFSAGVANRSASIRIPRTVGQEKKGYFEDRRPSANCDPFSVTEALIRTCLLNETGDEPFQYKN
UniProt Q6Y7W6: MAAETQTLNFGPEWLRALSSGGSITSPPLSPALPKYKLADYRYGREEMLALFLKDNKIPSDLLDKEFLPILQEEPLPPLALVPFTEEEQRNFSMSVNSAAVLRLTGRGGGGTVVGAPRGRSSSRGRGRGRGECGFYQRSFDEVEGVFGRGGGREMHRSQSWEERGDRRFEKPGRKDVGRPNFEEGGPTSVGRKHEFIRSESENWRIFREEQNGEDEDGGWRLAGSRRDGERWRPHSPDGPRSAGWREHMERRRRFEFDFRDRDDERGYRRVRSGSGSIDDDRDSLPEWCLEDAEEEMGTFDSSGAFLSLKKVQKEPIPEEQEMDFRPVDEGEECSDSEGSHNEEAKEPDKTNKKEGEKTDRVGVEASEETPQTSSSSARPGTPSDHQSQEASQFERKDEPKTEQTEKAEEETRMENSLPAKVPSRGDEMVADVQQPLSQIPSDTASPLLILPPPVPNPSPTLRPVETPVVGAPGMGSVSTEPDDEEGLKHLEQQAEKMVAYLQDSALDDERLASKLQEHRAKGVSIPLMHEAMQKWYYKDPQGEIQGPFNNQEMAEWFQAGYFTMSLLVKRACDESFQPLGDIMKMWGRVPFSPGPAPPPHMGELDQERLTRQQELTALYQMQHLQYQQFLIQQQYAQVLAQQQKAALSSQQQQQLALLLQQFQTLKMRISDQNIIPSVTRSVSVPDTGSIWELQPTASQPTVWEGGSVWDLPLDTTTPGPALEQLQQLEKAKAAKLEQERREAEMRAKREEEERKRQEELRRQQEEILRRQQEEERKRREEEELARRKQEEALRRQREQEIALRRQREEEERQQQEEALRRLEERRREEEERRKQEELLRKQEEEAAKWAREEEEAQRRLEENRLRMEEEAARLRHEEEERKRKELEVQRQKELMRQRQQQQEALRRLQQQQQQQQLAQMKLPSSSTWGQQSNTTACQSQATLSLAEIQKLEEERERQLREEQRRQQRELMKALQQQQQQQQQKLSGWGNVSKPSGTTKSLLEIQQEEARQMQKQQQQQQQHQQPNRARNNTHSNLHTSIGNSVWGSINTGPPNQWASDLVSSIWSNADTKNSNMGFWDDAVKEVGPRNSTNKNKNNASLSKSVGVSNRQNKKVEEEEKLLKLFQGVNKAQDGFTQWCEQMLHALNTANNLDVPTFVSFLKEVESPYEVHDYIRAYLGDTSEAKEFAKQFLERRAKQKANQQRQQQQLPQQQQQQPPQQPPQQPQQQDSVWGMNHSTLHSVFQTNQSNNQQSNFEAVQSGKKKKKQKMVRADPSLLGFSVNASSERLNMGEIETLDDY
UniProt Q86VQ1: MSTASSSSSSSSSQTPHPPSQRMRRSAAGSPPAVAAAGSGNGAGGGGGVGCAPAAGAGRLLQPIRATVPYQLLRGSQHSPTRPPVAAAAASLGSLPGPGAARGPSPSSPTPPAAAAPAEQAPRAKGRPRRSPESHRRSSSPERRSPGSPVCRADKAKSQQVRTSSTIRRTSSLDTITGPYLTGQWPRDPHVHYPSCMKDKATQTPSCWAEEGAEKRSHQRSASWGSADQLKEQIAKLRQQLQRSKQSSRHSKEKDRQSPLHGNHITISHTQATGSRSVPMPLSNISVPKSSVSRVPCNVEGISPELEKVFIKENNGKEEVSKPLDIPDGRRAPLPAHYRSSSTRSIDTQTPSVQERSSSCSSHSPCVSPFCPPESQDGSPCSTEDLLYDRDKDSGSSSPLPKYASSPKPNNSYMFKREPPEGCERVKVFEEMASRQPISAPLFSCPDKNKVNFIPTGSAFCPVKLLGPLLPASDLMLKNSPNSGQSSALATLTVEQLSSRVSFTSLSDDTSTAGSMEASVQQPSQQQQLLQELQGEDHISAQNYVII
UniProt Q9H4A5: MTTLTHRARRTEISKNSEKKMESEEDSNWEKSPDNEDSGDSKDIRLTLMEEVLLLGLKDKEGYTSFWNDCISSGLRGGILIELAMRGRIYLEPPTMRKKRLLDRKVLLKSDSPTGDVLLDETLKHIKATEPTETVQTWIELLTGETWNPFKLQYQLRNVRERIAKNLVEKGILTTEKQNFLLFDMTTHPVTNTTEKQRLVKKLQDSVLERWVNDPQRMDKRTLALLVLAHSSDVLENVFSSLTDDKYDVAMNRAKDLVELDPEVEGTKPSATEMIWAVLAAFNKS
UniProt P15586: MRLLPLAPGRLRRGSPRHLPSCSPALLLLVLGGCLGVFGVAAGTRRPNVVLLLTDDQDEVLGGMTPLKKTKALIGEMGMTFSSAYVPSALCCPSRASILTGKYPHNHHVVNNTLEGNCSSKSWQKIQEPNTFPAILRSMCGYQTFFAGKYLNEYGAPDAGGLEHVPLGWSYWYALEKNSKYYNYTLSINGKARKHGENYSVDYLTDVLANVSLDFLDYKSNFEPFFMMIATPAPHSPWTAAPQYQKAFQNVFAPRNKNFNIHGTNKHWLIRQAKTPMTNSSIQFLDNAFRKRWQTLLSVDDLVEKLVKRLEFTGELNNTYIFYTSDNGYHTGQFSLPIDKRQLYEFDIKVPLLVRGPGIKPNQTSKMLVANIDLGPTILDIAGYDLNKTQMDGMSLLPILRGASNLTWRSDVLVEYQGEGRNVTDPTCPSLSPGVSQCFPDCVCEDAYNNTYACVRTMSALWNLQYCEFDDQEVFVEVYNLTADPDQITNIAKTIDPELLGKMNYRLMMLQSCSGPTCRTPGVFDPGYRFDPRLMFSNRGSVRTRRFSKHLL

crizotinib = compound: C[C@@H](Oc1cc(-c2cnn(C3CCNCC3)c2)cnc1N)c1c(Cl)ccc(F)c1Cl [crizotinib]
Method in brief: as §1

[2] = compound: C[C@@H]1COCCN1C2=NC(=NC(=C2)C3(CC3)S(=O)(=O)C)C4=C5C=CNC5=CC=C4
Method in brief: as §1

[3] = compound: C[C@H](C1=CC=C(C=C1)C(=O)NC2=C3C=CNC3=NC=C2)N
Method in brief: as §1

duvelisib = compound: C[C@H](Nc1ncnc2nc[nH]c12)c1cc2cccc(Cl)c2c(=O)n1-c1ccccc1 [duvelisib]
Method in brief: as §1

gandotinib = compound: Cc1cc(Nc2cc(CN3CCOCC3)c3nc(C)c(Cc4ccc(Cl)cc4F)n3n2)n[nH]1 [gandotinib]
Method in brief: as §1

tozasertib = compound: Cc1cc(Nc2cc(N3CCN(C)CC3)nc(Sc3ccc(NC(=O)C4CC4)cc3)n2)n[nH]1 [tozasertib]
Method in brief: as §1

[4] = compound: Cc1cc(SCc2sc(-c3ccc(C(F)(F)F)cc3)nc2C)ccc1OCC(=O)O
Method in brief: as §1

doramapimod = compound: Cc1ccc(-n2nc(C(C)(C)C)cc2NC(=O)Nc2ccc(OCCN3CCOCC3)c3ccccc23)cc1 [doramapimod]
Method in brief: as §1

ispinesib = compound: Cc1ccc(C(=O)N(CCCN)[C@@H](c2nc3cc(Cl)ccc3c(=O)n2Cc2ccccc2)C(C)C)cc1 [ispinesib]
Method in brief: as §1

bafetinib = compound: Cc1ccc(NC(=O)c2ccc(CN3CC[C@H](N(C)C)C3)c(C(F)(F)F)c2)cc1Nc1nccc(-c2cncnc2)n1 [bafetinib]
Method in brief: as §1

[5] = compound: Cc1cccc(CC(=O)N2CCc3c2ccc(-c2cn(C)c4ncnc(N)c24)c3F)n1
Method in brief: as §1

nilotinib = compound: Cc1cn(-c2cc(NC(=O)c3ccc(C)c(Nc4nccc(-c5cccnc5)n4)c3)cc(C(F)(F)F)c2)cn1 [nilotinib]
Method in brief: as §1

[6] = compound: Cc1nc(Nc2n[nH]c3c2CN(C(=O)N[C@H](CN(C)C)c2ccccc2)C3(C)C)c2sccc2n1
Method in brief: as §1

dasatinib = compound: Cc1nc(Nc2ncc(C(=O)Nc3c(C)cccc3Cl)s2)cc(N2CCN(CCO)CC2)n1 [dasatinib]
Method in brief: as §1

[7] = compound: Cc1ncc(-c2ccnc(Nc3ccc(S(C)(=O)=O)cc3)n2)n1C(C)C
Method in brief: as §1

[8] = compound: Cn1cc(-c2ccc3c(c2)CCN3C(=O)Cc2cccc(C(F)(F)F)c2)c2c(N)ncnc21
Method in brief: as §1

[9] = compound: Cn1cc(-c2ccc3nnc(C(F)(F)c4ccc5ncccc5c4)n3n2)cn1
Method in brief: as §1

tipifarnib = compound: Cn1cncc1[C@@](N)(c1ccc(Cl)cc1)c1ccc2c(c1)c(-c1cccc(Cl)c1)cc(=O)n2C [tipifarnib]
Method in brief: as §1

mubritinib = compound: FC(F)(F)c1ccc(/C=C/c2nc(COc3ccc(CCCCn4ccnn4)cc3)co2)cc1 [mubritinib]
Method in brief: as §1

Measured: log2 fold change

GNPNAT1 (UniProt Q96EK6)
inactive: [1] -0.021 | crizotinib 0.01 | [2] 0.049 | [3] -0.1 | duvelisib 0.017 | gandotinib -0.006 | tozasertib -0.036 | [4] -0.1 | doramapimod -0.002 | ispinesib 0.03 | bafetinib -0.014 | [5] -0.074 | nilotinib 0.028 | [6] 0.014 | dasatinib 0.028 | [7] -0.018 | [8] 0.079 | [9] 0.032 | tipifarnib -0.019 | mubritinib 0.013

GNB4 (UniProt Q9HAV0)
inactive: [1] 0.055 | crizotinib 0.188 | [2] 0.147 | [3] -0.04 | duvelisib -0.093 | gandotinib -0.101 | tozasertib -0.009 | [4] 0.005 | doramapimod -0.024 | ispinesib 0.172 | bafetinib 0.071 | [5] 0.051 | nilotinib 0.22 | [6] 0.066 | dasatinib 0.107 | [7] -0.043 | [8] 0.018 | [9] -0.174 | tipifarnib -0.061 | mubritinib 0.07

GID8 (UniProt Q9NWU2)
inactive: [1] -0.022 | crizotinib 0.079 | [2] 0.158 | [3] -0.032 | duvelisib 0.099 | gandotinib -0.004 | tozasertib 0.06 | [4] 0.121 | doramapimod 0.051 | ispinesib 0.059 | bafetinib -0.02 | [5] -0.028 | nilotinib 0.01 | [6] -0.028 | dasatinib -0.056 | [7] -0.016 | [8] 0.018 | [9] -0.001 | tipifarnib 0.047 | mubritinib -0.001

GNPDA1 (UniProt P46926)
inactive: [1] 0.009 | crizotinib 0.062 | [2] 0.019 | [3] -0.049 | duvelisib 0.012 | gandotinib -0.019 | tozasertib 0.009 | [4] -0.048 | doramapimod -0.031 | ispinesib 0.024 | bafetinib -0.044 | [5] -0.018 | nilotinib 0.005 | [6] 0.012 | dasatinib 0.049 | [7] -0.023 | [8] -0.013 | [9] 0.009 | tipifarnib 0.022 | mubritinib 0.047

GRK2 (UniProt P25098)
inactive: [1] -0.018 | crizotinib -0.059 | [2] 0.069 | [3] 0 | duvelisib 0.027 | gandotinib -0.014 | tozasertib -0.032 | [4] 0.021 | doramapimod 0.007 | ispinesib 0.01 | bafetinib -0.044 | [5] -0.006 | nilotinib -0.056 | [6] 0.057 | dasatinib -0.084 | [7] -0.029 | [8] 0.078 | [9] 0.014 | tipifarnib -0.037 | mubritinib -0.023

GOLGA7 (UniProt Q7Z5G4)
inactive: [1] 0.077 | crizotinib 0.05 | [2] 0.116 | [3] -0.094 | duvelisib 0.043 | gandotinib 0.025 | tozasertib -0.05 | [4] -0.029 | doramapimod -0.069 | bafetinib 0.008 | [5] -0.117 | nilotinib 0.062 | [6] -0.035 | dasatinib -0.055 | [7] 0.072 | [8] 0.066 | tipifarnib 0.012 | mubritinib 0.002

GPI (UniProt P06744)
inactive: [1] 0 | crizotinib 0.032 | [2] 0.025 | [3] -0.098 | duvelisib 0.011 | gandotinib -0.031 | tozasertib -0.002 | [4] -0.003 | doramapimod -0.034 | ispinesib 0.042 | bafetinib 0.026 | [5] 0.01 | nilotinib -0.021 | [6] -0.041 | dasatinib -0.046 | [7] -0.008 | [8] 0.031 | [9] 0.011 | tipifarnib -0.007 | mubritinib 0.059

GPX4 (UniProt P36969)
inactive: [1] 0.014 | crizotinib 0.079 | [2] 0.011 | [3] -0.072 | gandotinib 0.013 | [4] -0.017 | doramapimod -0.039 | ispinesib 0.213 | bafetinib 0.003 | [5] 0.023 | nilotinib 0.036 | [6] -0.031 | dasatinib 0.015 | [7] 0.019 | [8] 0.05 | [9] 0.003 | tipifarnib -0.046 | mubritinib 0.033

GLA (UniProt P06280)
active: bafetinib -0.529
inactive: [1] -0.033 | crizotinib -0.205 | [2] -0.019 | [3] 0.018 | gandotinib -0.066 | [4] 0.034 | doramapimod -0.036 | ispinesib -0.148 | [5] -0.051 | nilotinib 0.021 | [6] -0.007 | dasatinib -0.039 | [7] -0.04 | [8] 0.005 | [9] 0.03 | tipifarnib 0.064 | mubritinib 0.035

GLUD2 (UniProt P49448)
inactive: [1] 0.102 | crizotinib 0.003 | [2] 0.011 | [3] -0.062 | gandotinib 0.064 | [4] 0.016 | doramapimod 0.041 | ispinesib 0 | bafetinib 0.234 | [5] 0.02 | [6] 0.21 | dasatinib -0.021 | [7] -0.031 | [9] -0.028 | tipifarnib 0.079 | mubritinib 0.041
active: nilotinib 0.478 | [8] 0.265

GSK3A (UniProt P49840)
inactive: crizotinib 0.129 | [2] 0.053 | [3] 0.015 | gandotinib 0.201 | [4] 0.015 | doramapimod -0.039 | ispinesib 0.072 | bafetinib -0.052 | [5] -0.027 | nilotinib -0.01 | dasatinib -0.024 | [8] -0.004 | [9] 0.011 | tipifarnib -0.033 | mubritinib 0.038
active: [1] 0.322 | [6] 0.308 | [7] 0.383

GLUL (UniProt P15104)
inactive: [1] -0.07 | crizotinib 0.008 | [3] 0.062 | gandotinib -0.014 | [4] -0.047 | doramapimod -0.126 | ispinesib 0.005 | bafetinib -0.027 | [5] -0.038 | nilotinib -0.061 | [6] 0.062 | dasatinib 0.015 | [7] -0.148 | [8] -0.035 | [9] -0.085 | tipifarnib 0.011 | mubritinib -0.112
active: [2] -0.267

GIGYF2 (UniProt Q6Y7W6)
inactive: [1] 0.005 | crizotinib -0.084 | [2] 0.083 | [3] 0 | gandotinib -0.03 | [4] 0.114 | doramapimod -0.028 | ispinesib -0.179 | bafetinib -0.076 | [5] 0.045 | nilotinib -0.161 | [6] -0.105 | dasatinib -0.22 | [7] -0.023 | [8] 0.054 | [9] -0.025 | tipifarnib -0.119 | mubritinib -0.03

GLCCI1 (UniProt Q86VQ1)
inactive: [1] -0.008 | crizotinib 0.045 | [2] 0.024 | [3] 0.026 | gandotinib 0.079 | [4] 0.044 | doramapimod -0.032 | ispinesib 0.239 | bafetinib -0.074 | [5] 0.037 | nilotinib 0.073 | [6] -0.103 | dasatinib -0.066 | [7] -0.094 | [8] 0.03 | [9] -0.175 | tipifarnib 0.075 | mubritinib 0.011

GOLPH3L (UniProt Q9H4A5)
inactive: [1] 0.169 | crizotinib 0.072 | [2] -0.028 | gandotinib 0.09 | doramapimod 0.287 | [5] -0.122 | mubritinib -0.225

Four successive entries out of the list so far, for reference:
GLA (UniProt P06280)
active: bafetinib -0.529
inactive: [1] -0.033 | crizotinib -0.205 | [2] -0.019 | [3] 0.018 | gandotinib -0.066 | [4] 0.034 | doramapimod -0.036 | ispinesib -0.148 | [5] -0.051 | nilotinib 0.021 | [6] -0.007 | dasatinib -0.039 | [7] -0.04 | [8] 0.005 | [9] 0.03 | tipifarnib 0.064 | mubritinib 0.035

GLUD2 (UniProt P49448)
inactive: [1] 0.102 | crizotinib 0.003 | [2] 0.011 | [3] -0.062 | gandotinib 0.064 | [4] 0.016 | doramapimod 0.041 | ispinesib 0 | bafetinib 0.234 | [5] 0.02 | [6] 0.21 | dasatinib -0.021 | [7] -0.031 | [9] -0.028 | tipifarnib 0.079 | mubritinib 0.041
active: nilotinib 0.478 | [8] 0.265

GSK3A (UniProt P49840)
inactive: crizotinib 0.129 | [2] 0.053 | [3] 0.015 | gandotinib 0.201 | [4] 0.015 | doramapimod -0.039 | ispinesib 0.072 | bafetinib -0.052 | [5] -0.027 | nilotinib -0.01 | dasatinib -0.024 | [8] -0.004 | [9] 0.011 | tipifarnib -0.033 | mubritinib 0.038
active: [1] 0.322 | [6] 0.308 | [7] 0.383

GLUL (UniProt P15104)
inactive: [1] -0.07 | crizotinib 0.008 | [3] 0.062 | gandotinib -0.014 | [4] -0.047 | doramapimod -0.126 | ispinesib 0.005 | bafetinib -0.027 | [5] -0.038 | nilotinib -0.061 | [6] 0.062 | dasatinib 0.015 | [7] -0.148 | [8] -0.035 | [9] -0.085 | tipifarnib 0.011 | mubritinib -0.112
active: [2] -0.267

Following part

GNS (UniProt P15586)
inactive: [1] 0.001 | crizotinib -0.115 | [2] 0.046 | [3] -0.032 | gandotinib 0.061 | [4] -0.028 | doramapimod 0.016 | ispinesib -0.021 | bafetinib -0.156 | [5] -0.002 | nilotinib 0.003 | [6] 0.037 | dasatinib 0.006 | [7] -0.033 | [8] 0.008 | [9] -0.028 | tipifarnib 0.02 | mubritinib -0.004

Reference: the supplement of paper PMC10849652
